Measurements: doi:10.1101/2020.09.02.280198
Where a chain is given by its changes, count along the chain named. Results are given in words; binding and its absence hold for the method and conditions named. Binding seen in cells or lysates may run through a third protein. Some entries that bind do so weakly or less than the wild type. Tags and fused reporters may be left off the sequences shown. Blank lines part the entries; values can stand above or below the binder they belong to.

Experiments:
Experiment in all cases: co-IP
[1] = target: T1, FLAG-tagged dyskerin K467/468R (human) (UniProt O60832)
T1 sequence: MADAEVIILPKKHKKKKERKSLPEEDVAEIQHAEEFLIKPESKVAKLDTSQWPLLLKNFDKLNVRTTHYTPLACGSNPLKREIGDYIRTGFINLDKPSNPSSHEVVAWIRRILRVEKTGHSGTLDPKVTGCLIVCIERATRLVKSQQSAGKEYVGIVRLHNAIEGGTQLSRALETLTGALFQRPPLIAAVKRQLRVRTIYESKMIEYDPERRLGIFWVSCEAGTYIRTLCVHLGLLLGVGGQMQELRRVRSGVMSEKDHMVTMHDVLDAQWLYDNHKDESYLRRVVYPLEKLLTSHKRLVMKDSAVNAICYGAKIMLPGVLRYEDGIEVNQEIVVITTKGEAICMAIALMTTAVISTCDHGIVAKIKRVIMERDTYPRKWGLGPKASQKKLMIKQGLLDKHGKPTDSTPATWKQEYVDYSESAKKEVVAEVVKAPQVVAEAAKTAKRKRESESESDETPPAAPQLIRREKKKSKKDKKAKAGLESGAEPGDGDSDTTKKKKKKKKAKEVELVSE

[2] = target: T2, FLAG-tagged dyskerin K467R (human) (UniProt O60832)
T2 sequence: T1 sequence with R468K

[3] = target: T3, FLAG-tagged dyskerin A481X (human) (UniProt O60832)
T3 sequence: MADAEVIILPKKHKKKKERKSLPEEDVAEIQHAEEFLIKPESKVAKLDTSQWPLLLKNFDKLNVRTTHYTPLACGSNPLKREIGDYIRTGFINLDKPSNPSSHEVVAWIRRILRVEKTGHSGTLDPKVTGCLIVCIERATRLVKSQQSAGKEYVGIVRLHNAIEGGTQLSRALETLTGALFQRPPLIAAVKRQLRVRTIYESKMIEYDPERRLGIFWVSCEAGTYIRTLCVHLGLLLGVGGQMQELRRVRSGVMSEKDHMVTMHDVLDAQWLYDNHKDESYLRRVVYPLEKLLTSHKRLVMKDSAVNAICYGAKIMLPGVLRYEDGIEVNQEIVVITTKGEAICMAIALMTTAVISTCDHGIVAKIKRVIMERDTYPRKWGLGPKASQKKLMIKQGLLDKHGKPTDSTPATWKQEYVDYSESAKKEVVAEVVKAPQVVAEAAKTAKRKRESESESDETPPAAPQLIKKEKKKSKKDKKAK

[4] = target: T4, FLAG-tagged wildtype dyskerin (human) (UniProt O60832)
T4 sequence: T1 sequence with R467K, R468K

[5] = target: T5, FLAG-tagged dyskerin K468R (human) (UniProt O60832)
T5 sequence: T1 sequence with R467K

[6] = target: T6, FLAG-tagged dyskerin K446X (human) (UniProt O60832)
T6 sequence: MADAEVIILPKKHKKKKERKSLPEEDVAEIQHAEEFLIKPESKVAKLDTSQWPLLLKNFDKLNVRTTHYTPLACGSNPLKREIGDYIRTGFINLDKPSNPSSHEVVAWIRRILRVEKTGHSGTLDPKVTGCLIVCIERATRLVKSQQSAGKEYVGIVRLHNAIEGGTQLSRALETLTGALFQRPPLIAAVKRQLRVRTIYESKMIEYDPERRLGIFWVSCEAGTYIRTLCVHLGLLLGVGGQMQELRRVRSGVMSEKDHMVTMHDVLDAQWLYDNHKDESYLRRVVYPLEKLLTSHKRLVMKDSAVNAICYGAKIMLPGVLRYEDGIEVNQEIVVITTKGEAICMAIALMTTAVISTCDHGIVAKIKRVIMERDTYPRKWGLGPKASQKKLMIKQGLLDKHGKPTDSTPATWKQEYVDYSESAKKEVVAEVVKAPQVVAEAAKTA

binding [1]: binds
binding [2]: binds
binding [3]: binds
binding [4]: binds
binding [5]: binds
binding [6]: binds
B1: endogenous NHP2 (protein, UniProt Q9NX24 1-153)
chain: MTKIKADPDGPEAQAEACSGERTYQELLVNQNPIAQPLASRRLTRKLYKCIKKAVKQKQIRRGVKEVQKFVNKGEKGIMVLAGDTLPIEVYCHLPVMCEDRNLPYVYIPSKTDLGAAAGSKRPTCVIMVKPHEEYQEAYDECLEEVQSLPLPL

binding [1]: binds
binding [2]: binds
binding [3]: binds
binding [4]: binds
binding [5]: binds
binding [6]: binds
B2: endogenous NAF1 (protein, UniProt Q96HR8 1-494)
chain: MEVVEAAAAQLETLKFNGTDFGVGEGPAAPSPGSAPVPGTQPPLQSFEGSPDAGQTVEVKPAGEQPLQPVLNAVAAGTPAPQPQPPAESPACGDCVTSPGAAEPARAPDSLETSDSDSDSDSETDSDSSSSSSSSSSSSSSSSSSCISLPPVLSDGDDDLQIEKENKNFPLKTKDELLLNELPSVEELTIILPEDIELKPLGMVSSIIEQLVIIESMTNLPPVNEETVIFKSDRQAAGKIFEIFGPVAHPFYVLRFNSSDHIESKGIKIKETMYFAPSMKDFTQYIFTEKLKQDKGSDASWKNDQEPPPEALDFSDDEKEKEAKQRKKSQIQGRKKLKSEFNEPGEDFTEVHQNWNAHSSASEHAKGYRNREFTRGFSRARYPRSCHGRPPPQHFYNSEHMVSQETSGFPSQRQNNPIMPQYPFPLPVFDMHNFPLRPPPPPPPPPVNMGWATPNMAAHPLLNLPYSLPPPPPPPPLPPPPSSGDSNSHFGPYY
